According to PMC3081335:
Results are given in words; binding and its absence hold for the method and conditions named. In cells and extracts the contact can be indirect. Some entries that bind do so weakly or less than the wild type.

Molecular target: rat GluN1a splice variant construct with a deletion from M848 to S938, GFP-tagged (wild type) (rat) (UniProt P35439)
Assay: cross-linking; GluN1 subunit expressed alone in tsA201 cells; dodecylmaltoside whole-cell extract, non-reducing SDS-PAGE, Western blot with GFP antibody

Substance: rat GluN1a splice variant construct with a deletion from M848 to S938, GFP-tagged (wild type) (from UniProt P35439-1 19-847) (receptor)
- binding: binds weakly
